Taken from: PubChem BioAssay AID1259308 (NCATS, 2017)
The whole screen tested about 59,000 reagents; shown is an unselected part. About 1,510 of all reagents (2.6%) were called active. 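Calls use total luciferase alone and ignore viability, so some active siRNAs may act by altering cell number.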 Reagents against one gene are numbered here. Not all columns of the deposit are shown. No sequences are given here.

- Test: 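Genes whose loss raises luciferase production in HEK293 cells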 (primary screen)
- System: human HEK293 embryonic kidney cells stably expressing firefly luciferase (HEK-CMV-Luc2-Hygro)
- Knock-down reagent: single siRNA against human genes, 0.8 pmol siRNA per well
- Timing: 72 h
- Read-out: 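Luciferase light (ONE-Glo) measured on one replicate plate set and viability (CellTiter-Glo) on the other, scaled to a negative control siRNA, with robust z-scores and luciferase per cell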
- Direction: total luciferase, z-score and total luciferase, % of control: higher = more reporter protein produced
- Hit rule: 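Active when the median/MAD z-score for overall luciferase is greater than 3; a gene was taken forward for validation with new siRNAs if at least two of its three siRNAs passed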
- Calls: active = raised luciferase; inactive = no rise

gene knocked down | reagent | total luciferase, z-score | total luciferase, % of control | Call
MEST | 1 | 0.57 | 93.2 | inactive
MEST | 2 | -0.935 | 63.3 | inactive
MEST | 3 | 0.538 | 92.6 | inactive
MAJIN | 1 | 1.02 | 102 | inactive
MAJIN | 2 | -0.3 | 75.9 | inactive
MAJIN | 3 | -0.695 | 68.1 | inactive
HACD4 | 1 | -1.25 | 57 | inactive
HACD4 | 2 | 0.689 | 95.6 | inactive
HACD4 | 3 | -0.837 | 65.2 | inactive
ADRM1 | 1 | -0.98 | 62.4 | inactive
ADRM1 | 2 | -0.0109 | 81.7 | inactive
ADRM1 | 3 | 0.116 | 84.2 | inactive
CD70 | 1 | 0.411 | 90.1 | inactive
CD70 | 2 | -1.47 | 52.7 | inactive
CD70 | 3 | 1.29 | 107 | inactive
VCPKMT | 1 | -2.01 | 42 | inactive
VCPKMT | 2 | -0.626 | 69.4 | inactive
VCPKMT | 3 | 1.21 | 106 | inactive
ZNF223 | 1 | 0.463 | 91.1 | inactive
ZNF223 | 2 | 2.36 | 129 | inactive
ZNF223 | 3 | -0.0984 | 79.9 | inactive
IFITM3 | 1 | 1.16 | 105 | inactive
IFITM3 | 2 | -0.599 | 70 | inactive
IFITM3 | 3 | 1.01 | 102 | inactive
QNG1 | 1 | -0.133 | 79.2 | inactive
QNG1 | 2 | 0.932 | 100 | inactive
QNG1 | 3 | 0.539 | 92.6 | inactive
RPL39L | 1 | -1.39 | 54.3 | inactive
RPL39L | 2 | -0.547 | 71 | inactive
RPL39L | 3 | 1.25 | 107 | inactive
CTBP1-DT | 1 | 0.176 | 85.4 | inactive
CTBP1-DT | 2 | -0.111 | 79.7 | inactive
CTBP1-DT | 3 | 0.203 | 85.9 | inactive
CRTC3 | 1 | 1.97 | 121 | inactive
CRTC3 | 2 | -0.687 | 68.2 | inactive
CRTC3 | 3 | 0.801 | 97.8 | inactive
KIF13B | 1 | 0.204 | 85.9 | inactive
KIF13B | 2 | 0.0889 | 83.7 | inactive
KIF13B | 3 | -0.54 | 71.1 | inactive
CSRP1 | 1 | 0.298 | 87.8 | inactive
CSRP1 | 2 | 0.575 | 93.3 | inactive
CSRP1 | 3 | -0.876 | 64.5 | inactive
PEX11B | 1 | -0.15 | 78.9 | inactive
PEX11B | 2 | 0.88 | 99.4 | inactive
PEX11B | 3 | 0.0511 | 82.9 | inactive
NOX4 | 1 | 0.0999 | 83.9 | inactive
NOX4 | 2 | -1.92 | 43.8 | inactive
NOX4 | 3 | -1.2 | 58 | inactive
LGALS12 | 1 | 1.73 | 116 | inactive
LGALS12 | 2 | 0.317 | 88.2 | inactive
LGALS12 | 3 | -0.577 | 70.4 | inactive
FSCN2 | 1 | -0.747 | 67 | inactive
FSCN2 | 2 | -0.253 | 76.8 | inactive
FSCN2 | 3 | 0.0376 | 82.6 | inactive
LNCRI | 1 | 0.151 | 84.9 | inactive
LNCRI | 2 | 1.87 | 119 | inactive
LNCRI | 3 | 0.963 | 101 | inactive
STX18 | 1 | -0.421 | 73.5 | inactive
STX18 | 2 | -0.322 | 75.5 | inactive
STX18 | 3 | 0.635 | 94.5 | inactive
PCDHB4 | 1 | -0.0352 | 81.2 | inactive
PCDHB4 | 2 | -0.243 | 77 | inactive
PCDHB4 | 3 | 1.19 | 105 | inactive
SPATC1 | 1 | 0.199 | 85.9 | inactive
SPATC1 | 2 | 0.496 | 91.7 | inactive
SPATC1 | 3 | 0.127 | 84.4 | inactive
MAP4K2 | 1 | 0.456 | 91 | inactive
MAP4K2 | 2 | -0.367 | 74.6 | inactive
MAP4K2 | 3 | 2.9 | 140 | inactive
THNSL1 | 1 | 0.0293 | 82.5 | inactive
THNSL1 | 2 | -0.884 | 64.3 | inactive
THNSL1 | 3 | 0.235 | 86.6 | inactive
CD93 | 1 | -0.734 | 67.3 | inactive
CD93 | 2 | 0.302 | 87.9 | inactive
CD93 | 3 | 0.0049 | 82 | inactive

An excerpt taken from the entries so far:
gene knocked down | reagent | total luciferase, z-score | total luciferase, % of control | Call
KIF13B | 1 | 0.204 | 85.9 | inactive
KIF13B | 2 | 0.0889 | 83.7 | inactive
KIF13B | 3 | -0.54 | 71.1 | inactive
CSRP1 | 1 | 0.298 | 87.8 | inactive
CSRP1 | 2 | 0.575 | 93.3 | inactive
CSRP1 | 3 | -0.876 | 64.5 | inactive
PEX11B | 1 | -0.15 | 78.9 | inactive
PEX11B | 2 | 0.88 | 99.4 | inactive
PEX11B | 3 | 0.0511 | 82.9 | inactive
NOX4 | 1 | 0.0999 | 83.9 | inactive
